# Assay results reported in patent publication US20100227805A1.
# Sequences of proteins named here, by UniProt entry; tags and fusion partners are left off. Residues count along the entry.
# UniProt P10147, residues 27-92: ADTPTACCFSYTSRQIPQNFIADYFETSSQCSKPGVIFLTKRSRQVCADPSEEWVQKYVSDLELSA
# Results are given in words; binding and its absence hold for the method and conditions named. Some entries that bind do so weakly or less than the wild type.
# B1: mCCR5(EC2)-IgG (Fc fusion)
# chain: DAAQPARRARRTKLRSQKEGFHYTCSPHFPHTQYHFWKSFQTLKLEVPRDCGCKPCICTVPEVSSVFIFPPKPKDVLTITLTPKVTCVVVDISKDDPEVQFSWFVDDVEVHTAQTQPREEQFNSTFRSVSELPIMHQDCLNGKEFKCRVNSAAFPAPIEKTISKTKGRPKAPQVYTIPPPKEQMAKDKVSLTCMITDFFPEDITVEWQWNGQPAENYKNTQPIMDTDGSYFVYSKLNVQKSNWEAGNTFTCSVLHEGLHNHHTEKSLSHSPGKGPEQKLISEEDLNSAVDHHHHHH
# Molecular target: human MIP-1α (CCL3) (human) (UniProt P10147)
# Assay: direct ELISA, chemokine coated at 10 ng/well, fusion at 1 µg/well
binder,measurement,value
B1,binding,binds
